Results: paper PMC9967580
Like-named read-outs stand apart in the source and are kept apart here. No constants are given. Whether binding was seen depends on the method and setting. For some of these results: Binding seen in cells or lysates may run through a third protein. Some results given as binding are weak or reduced against the parent protein; the word gives no strength. Sequences can lack the tags named with a protein. Blank lines part the entries; values can stand above or below the molecule they belong to.

The chains behind the UniProt entries cited, without tags or fusion partners.
UniProt Q7XA73: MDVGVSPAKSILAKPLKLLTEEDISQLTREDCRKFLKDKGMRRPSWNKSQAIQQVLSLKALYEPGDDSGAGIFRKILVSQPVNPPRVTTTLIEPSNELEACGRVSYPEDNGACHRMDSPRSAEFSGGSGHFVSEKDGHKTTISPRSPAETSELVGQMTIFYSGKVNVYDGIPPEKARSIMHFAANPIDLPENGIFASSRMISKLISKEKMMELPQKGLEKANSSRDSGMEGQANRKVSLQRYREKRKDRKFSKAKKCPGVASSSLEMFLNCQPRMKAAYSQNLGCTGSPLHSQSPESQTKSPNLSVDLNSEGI
UniProt Q8GY55: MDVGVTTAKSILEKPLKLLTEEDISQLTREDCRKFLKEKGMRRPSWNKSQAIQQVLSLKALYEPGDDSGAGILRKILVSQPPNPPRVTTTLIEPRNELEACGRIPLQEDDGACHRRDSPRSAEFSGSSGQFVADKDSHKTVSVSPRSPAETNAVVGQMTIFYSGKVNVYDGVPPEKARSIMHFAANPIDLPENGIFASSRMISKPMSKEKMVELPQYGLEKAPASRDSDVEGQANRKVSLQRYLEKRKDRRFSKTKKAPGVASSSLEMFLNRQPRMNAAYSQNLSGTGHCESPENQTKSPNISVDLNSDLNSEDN

Tests used:
[1] = molecular target: T1, GAL4-BD-REV (REVOLUTA fused to the GAL4 DNA-binding domain) (Arabidopsis thaliana) (UniProt Q9SE43); assay: two-hybrid; Matchmaker Gold Yeast Two-Hybrid System; bait as GAL4-BD fusion (pGBKT7) in strain Y2H Gold, prey as GAL4-AD fusion (pGADT7) in strain Y187, mated; serial 1:10 dilutions spotted on DDO control and selective media of increasing stringency (TDO, DDO/X/AbA, QDO, QDO/X, QDO/X/AbA); growth after four to five days at 30 °C
T1 sequence: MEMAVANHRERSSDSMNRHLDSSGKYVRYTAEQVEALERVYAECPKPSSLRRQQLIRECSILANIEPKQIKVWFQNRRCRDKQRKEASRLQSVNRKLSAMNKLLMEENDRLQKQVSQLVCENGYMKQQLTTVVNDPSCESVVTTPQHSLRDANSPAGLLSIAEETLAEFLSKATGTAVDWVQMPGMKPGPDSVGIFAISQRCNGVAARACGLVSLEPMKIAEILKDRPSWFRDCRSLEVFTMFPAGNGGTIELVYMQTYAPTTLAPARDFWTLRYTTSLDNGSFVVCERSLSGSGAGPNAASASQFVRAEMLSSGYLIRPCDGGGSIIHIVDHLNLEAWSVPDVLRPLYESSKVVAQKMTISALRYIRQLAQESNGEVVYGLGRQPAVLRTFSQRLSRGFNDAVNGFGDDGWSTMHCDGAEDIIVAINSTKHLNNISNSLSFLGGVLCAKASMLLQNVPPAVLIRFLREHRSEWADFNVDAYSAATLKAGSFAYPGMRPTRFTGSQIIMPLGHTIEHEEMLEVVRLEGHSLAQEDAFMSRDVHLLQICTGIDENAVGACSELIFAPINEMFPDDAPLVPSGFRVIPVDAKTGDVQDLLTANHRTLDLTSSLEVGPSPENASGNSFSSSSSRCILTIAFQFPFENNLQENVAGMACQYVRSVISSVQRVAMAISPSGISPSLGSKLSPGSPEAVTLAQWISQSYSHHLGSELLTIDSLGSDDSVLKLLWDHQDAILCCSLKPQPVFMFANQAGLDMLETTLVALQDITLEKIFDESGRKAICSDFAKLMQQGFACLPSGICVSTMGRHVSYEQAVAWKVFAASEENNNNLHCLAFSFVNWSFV

[2] = molecular target: T2, GAL4-BD-TIFY8 (Arabidopsis thaliana) (UniProt Q84MB2); assay: as above
T2 sequence: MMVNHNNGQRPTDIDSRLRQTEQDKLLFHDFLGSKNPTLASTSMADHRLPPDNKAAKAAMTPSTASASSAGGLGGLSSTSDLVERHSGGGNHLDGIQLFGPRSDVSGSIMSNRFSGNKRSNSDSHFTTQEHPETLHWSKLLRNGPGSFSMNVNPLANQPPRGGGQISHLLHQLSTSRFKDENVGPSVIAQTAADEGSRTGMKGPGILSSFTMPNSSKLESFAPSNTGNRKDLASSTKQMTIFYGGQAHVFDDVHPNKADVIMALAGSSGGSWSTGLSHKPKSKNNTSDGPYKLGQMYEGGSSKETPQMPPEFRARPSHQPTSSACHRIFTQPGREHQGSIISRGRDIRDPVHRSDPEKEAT

[3] = molecular target: T1, GAL4-BD-REV (REVOLUTA fused to the GAL4 DNA-binding domain) (Arabidopsis thaliana); assay: as above; remark: listed apart in the source
[4] = molecular target: T3, REV fused to one half of the yellow fluorescent protein (BiFC construct) (Arabidopsis thaliana) (UniProt Q9SE43); assay: split reporter; ratiometric BiFC, both partners and RFP on one vector (pBiFCt-2in1-NN, 35S promoter); Arabidopsis protoplasts read by flow cytometry (CytoFLEX) 1 day after transfection, and Agrobacterium-infiltrated Nicotiana benthamiana leaves read by confocal microscopy 2 days later
T3 sequence: T1 sequence

binding [3]: no binding
B1: TIFY8-C3 (176 to 229aa) fused with GAL4-AD (domain or fragment, UniProt Q84MB2 176-229)
chain: SRFKDENVGPSVIAQTAADEGSRTGMKGPGILSSFTMPNSSKLESFAPSNTGNR

binding [3]: no binding
B2: TIFY8-N (1 to 229aa) fused with GAL4-AD (domain or fragment, UniProt Q84MB2 1-229)
chain: MMVNHNNGQRPTDIDSRLRQTEQDKLLFHDFLGSKNPTLASTSMADHRLPPDNKAAKAAMTPSTASASSAGGLGGLSSTSDLVERHSGGGNHLDGIQLFGPRSDVSGSIMSNRFSGNKRSNSDSHFTTQEHPETLHWSKLLRNGPGSFSMNVNPLANQPPRGGGQISHLLHQLSTSRFKDENVGPSVIAQTAADEGSRTGMKGPGILSSFTMPNSSKLESFAPSNTGNR

binding [3]: binds
B4: TIFY8-C1 (230 to 361aa) fused with GAL4-AD (domain or fragment, UniProt Q84MB2 230-361)
chain: KDLASSTKQMTIFYGGQAHVFDDVHPNKADVIMALAGSSGGSWSTGLSHKPKSKNNTSDGPYKLGQMYEGGSSKETPQMPPEFRARPSHQPTSSACHRIFTQPGREHQGSIISRGRDIRDPVHRSDPEKEAT

binding [4]: binds
B5: TIFY8-C1 fused to one half of the yellow fluorescent protein (BiFC construct) (domain or fragment, UniProt Q84MB2 230-361)
chain: B4 chain

binding [3]: binds
B9: TIFY8-C (176 to 361aa) fused with GAL4-AD (domain or fragment, UniProt Q84MB2 176-361)
chain: SRFKDENVGPSVIAQTAADEGSRTGMKGPGILSSFTMPNSSKLESFAPSNTGNRKDLASSTKQMTIFYGGQAHVFDDVHPNKADVIMALAGSSGGSWSTGLSHKPKSKNNTSDGPYKLGQMYEGGSSKETPQMPPEFRARPSHQPTSSACHRIFTQPGREHQGSIISRGRDIRDPVHRSDPEKEAT

binding [4]: binds
B10: TIFY8-C fused to one half of the yellow fluorescent protein (BiFC construct) (domain or fragment, UniProt Q84MB2 176-361)
chain: B9 chain

binding [3]: no binding
B12: TIFY8-N1 (1 to 176aa) fused with GAL4-AD (domain or fragment, UniProt Q84MB2 1-176)
chain: MMVNHNNGQRPTDIDSRLRQTEQDKLLFHDFLGSKNPTLASTSMADHRLPPDNKAAKAAMTPSTASASSAGGLGGLSSTSDLVERHSGGGNHLDGIQLFGPRSDVSGSIMSNRFSGNKRSNSDSHFTTQEHPETLHWSKLLRNGPGSFSMNVNPLANQPPRGGGQISHLLHQLSTS

More lines, now with the values behind:

Molecule: PEAPOD1 (PPD1) fused with GAL4-AD (from UniProt Q7XA73 1-313)
binding [1]: binds | binding [2]: binds

Molecule: PEAPOD2 (PPD2) full length fused with GAL4-AD (from UniProt Q8GY55 1-315)
binding [1]: binds | binding [2]: binds

B3: GAL4-AD-JAZ9 (protein, UniProt Q8W4J8 1-267)
chain: MERDFLGLSDKQYLSNNVKHEVNDDAVEERGLSTKAAREWGKSKVFATSSFMPSSDFQEAKAFPGAYQWGSVSAANVFRRCQFGGAFQNATPLLLGGSVPLPTHPSLVPRVASSGSSPQLTIFYGGTISVFNDISPDKAQAIMLCAGNGLKGETGDSKPVREAERMYGKQIHNTAATSSSSATHTDNFSRCRDTPVAATNAMSMIESFNAAPRNMIPSVPQARKASLARFLEKRKERLMSAMPYKKMLLDLSTGESSGMNYSSTSPT
binding [3]: binds

B6: TIFY8 full length (1 to 361aa) fused with GAL4-AD (protein, UniProt Q84MB2 1-361)
chain: T2 sequence
binding [3]: binds

B7: TIFY8 (full length) fused to one half of the yellow fluorescent protein (BiFC construct) (protein, UniProt Q84MB2 1-361)
chain: T2 sequence
binding [4]: binds

B8: GAL4-AD-JAZ10 (protein, UniProt Q93ZM9 1-197)
chain: MSKATIELDFLGLEKKQTNNAPKPKFQKFLDRRRSFRDIQGAISKIDPEIIKSLLASTGNNSDSSAKSRSVPSTPREDQPQIPISPVHASLARSSTELVSGTVPMTIFYNGSVSVFQVSRNKAGEIMKVANEAASKKDESSMETDLSVILPTTLRPKLFGQNLEGDLPIARRKSLQRFLEKRKERLVSTSPYYPTSA
binding [3]: binds

B11: GAL4-AD-JAZ4 (protein, UniProt Q58G47 1-310)
chain: MERDFLGLGSKLSPITVKEETNEDSAPSRGMMDWSFSSKVGSGPQFLSFGTSQQETRVNTVNDHLLSSAAMDQNQRTYFSSLQEDRVFPGSSQQDQTTITVSMSEPNYINSFINHQHLGGSPIMAPPVSVFPAPTTIRSSSKPLPPQLTIFYAGSVLVYQDIAPEKAQAIMLLAGNGPHAKPVSQPKPQKLVHHSLPTTDPPTMPPSFLPSISYIVSETRSSGSNGVTGLGPTKTKASLASTRNNQTAAFSMAPTVGLPQTRKASLARFLEKRKERVINVSPYYVDNKSSIDCRTLMSECVSCPPAHHLH
binding [3]: binds
